Laboratory results: PubChem BioAssay AID743121 (NCATS, 2013)
Test: 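Partners whose loss is lethal together with topoisomerase I blockade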 (primary screen). System: MDA-MB-231 cells, a human breast cancer line. Knock-down reagent: single siRNA against human genes, 20 nM siRNA (0.8 pmol per well). Duration: 120 h (drug added 48 h after transfection, read 72 h later). Treatment: camptothecin 20 nM (about EC30) for 72 h; vehicle 0.1% DMSO in parallel plates. Measured: 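CellTiter-Glo ATP signal, scaled to control siRNA as percent viability; sensitisation given as log2 of untreated divided by camptothecin-treated viability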. Scale: log2 vehicle/camptothecin viability: higher = stronger sensitisation to camptothecin; viability with camptothecin and viability without drug: higher = more viable cells. Call rule: 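Each gene scored by redundant siRNA activity (RSA) over its individual siRNA ratios; a gene is called active at p < 0.001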.
Shown is an unselected part of about 26,000 reagents tested. 167 of them (0.63%) were called active. 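Calls are per gene from RSA p-values that are not deposited; an individual active-marked siRNA can sensitise only weakly.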 Reagents against one gene are numbered here.

gene	reagent	log2 vehicle/camptothecin viability	viability with camptothecin (% of control)	viability without drug (% of control)	Outcome
STK24	1	-0.234	126	107	inactive
STK24	2	-0.172	86.7	76.9	inactive
STK24	3	-0.342	88.8	70	inactive
STK24	4	-0.284	101	82.6	inactive
TPH1	1	-0.126	109	99.7	inactive
TPH1	2	-0.0483	87.3	84.4	inactive
TPH1	3	-0.449	47.3	34.7	inactive
TPH1	4	-0.621	69.5	45.2	inactive
LHX3	1	0.734	9.46	15.7	inactive
LHX3	2	-0.0386	64.5	62.8	inactive
LHX3	3	0.229	91.8	108	inactive
LHX3	4	-0.612	70.4	46.1	inactive
GNAT2	1	0.0377	78.4	80.5	inactive
GNAT2	2	-0.0292	95.6	93.6	inactive
GNAT2	3	-0.0885	49.2	46.3	inactive
GNAT2	4	-0.464	92.4	67	inactive
NDUFV1	1	-0.321	65.1	52.1	inactive
NDUFV1	2	-0.314	82.8	66.6	inactive
NDUFV1	3	-0.164	92	82.1	inactive
NDUFV1	4	-0.238	55.6	47.2	inactive
SUPT16H	1	-0.31	83.4	67.2	inactive
SUPT16H	2	-0.315	100	80.4	inactive
SUPT16H	3	0.19	51.6	58.8	inactive
SUPT16H	4	-0.167	101	90.2	inactive
RASGRF1	1	-0.0289	103	101	inactive
RASGRF1	2	0.637	38.6	60	inactive
RASGRF1	3	-0.225	39.6	33.9	inactive
RASGRF1	4	-0.637	57.4	36.9	inactive
PCCA	1	0.701	39.9	64.9	inactive
PCCA	2	-0.137	119	108	inactive
PCCA	3	-0.416	112	83.9	inactive
PCCA	4	-0.212	113	97.2	inactive
NME2P1	1	-0.0097	31.2	31	inactive
BEST1	1	-0.427	96.7	71.9	inactive
BEST1	2	-0.217	104	89.7	inactive
BEST1	3	-0.145	89.5	80.9	inactive
BEST1	4	0.505	37	52.6	inactive
ZMYND8	1	-0.14	116	105	inactive
ZMYND8	2	-0.00931	90.1	89.6	inactive
ZMYND8	3	-0.538	20.6	14.2	inactive
ZMYND8	4	-0.108	103	95.2	inactive
NSD2	1	-0.277	87.3	72	inactive
NSD2	2	0.371	12.6	16.3	inactive
NSD2	3	-0.226	21.7	18.6	inactive
NSD2	4	-0.388	88.2	67.4	inactive
NSD2	5	0.549	28.1	41.1	inactive
NSD2	6	-0.549	74.5	50.9	inactive
NSD2	7	0.589	52.2	78.5	inactive
NSD2	8	0.318	29.5	36.8	inactive
ELF2	1	0.591	30.1	45.3	inactive
ELF2	2	-0.133	58.1	53	inactive
ELF2	3	-0.0497	84	81.1	inactive
ELF2	4	-0.274	57.6	47.6	inactive
ZNF845	1	-0.286	75.6	62	inactive
ZNF845	2	-0.32	73.7	59	inactive
ZNF845	3	-0.231	120	102	inactive
ZNF845	4	-0.044	84.3	81.8	inactive
ZNF845	5	-0.387	68.4	52.3	inactive
ZNF845	6	-0.177	78.6	69.6	inactive
ZNF845	7	0.0613	95.6	99.7	inactive
ZNF845	8	-0.13	58.2	53.2	inactive
IL18R1	1	-0.34	105	82.6	inactive
IL18R1	2	-0.0436	98	95.1	inactive
IL18R1	3	-0.0711	61.3	58.4	inactive
IL18R1	4	0.12	98.6	107	inactive
TREML1	1	-0.0601	58.6	56.2	inactive
TREML1	2	-0.00506	104	104	inactive
TREML1	3	0.0419	38.1	39.2	inactive
TREML1	4	0.107	41.7	44.9	inactive

Already shown: an excerpt of the list.
gene	reagent	log2 vehicle/camptothecin viability	viability with camptothecin (% of control)	viability without drug (% of control)	Outcome
PCCA	4	-0.212	113	97.2	inactive
NME2P1	1	-0.0097	31.2	31	inactive
BEST1	1	-0.427	96.7	71.9	inactive
BEST1	2	-0.217	104	89.7	inactive
BEST1	3	-0.145	89.5	80.9	inactive
